Assay results as given in article PMC10531985.

Amino acid sequences for entries named in this document (tags omitted).
UniProt P19338, whole entry: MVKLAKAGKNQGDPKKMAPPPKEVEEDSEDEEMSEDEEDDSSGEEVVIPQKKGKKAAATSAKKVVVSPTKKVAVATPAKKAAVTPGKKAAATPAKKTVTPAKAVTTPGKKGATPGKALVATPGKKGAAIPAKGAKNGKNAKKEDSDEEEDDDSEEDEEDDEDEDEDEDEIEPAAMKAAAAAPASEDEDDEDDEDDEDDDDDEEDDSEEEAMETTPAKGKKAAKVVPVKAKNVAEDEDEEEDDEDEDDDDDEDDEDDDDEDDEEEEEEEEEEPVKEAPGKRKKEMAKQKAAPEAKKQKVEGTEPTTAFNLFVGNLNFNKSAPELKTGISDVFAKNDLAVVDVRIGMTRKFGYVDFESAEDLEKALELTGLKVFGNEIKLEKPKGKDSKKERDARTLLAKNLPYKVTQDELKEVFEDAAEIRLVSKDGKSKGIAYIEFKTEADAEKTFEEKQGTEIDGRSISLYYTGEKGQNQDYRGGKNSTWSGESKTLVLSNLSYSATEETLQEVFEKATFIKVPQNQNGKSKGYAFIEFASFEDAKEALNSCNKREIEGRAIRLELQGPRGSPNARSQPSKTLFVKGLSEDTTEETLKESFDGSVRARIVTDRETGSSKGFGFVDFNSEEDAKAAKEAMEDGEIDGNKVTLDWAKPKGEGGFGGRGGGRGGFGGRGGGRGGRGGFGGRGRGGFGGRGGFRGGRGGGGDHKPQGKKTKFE

Legend:
cell surface nucleolin = cell surface nucleolin (UniProt P19338); assay: competition with a labelled probe; settings: 2 uM aptamer vs anti-NCL antibody, flow cytometry on MCF7, Hela, MDA MB 468; EMSA: 5x binding buffer listed as 40 mM Tris, 30 mM KCl, 1 mM MgCl2, 1 mM DTT, pH 8.0, 200 nM probe, room temperature 25 min, gel with 20 mM KCl at 4 C; protein on the cell surface
[1] = biological target: nucleolin (NCL) (Homo sapiens) (UniProt P19338); assay: SPR; settings: 150 mM KCl, Kd not in text, SPR: 10 mM HEPES, 3 mM EDTA, pH 7.4, NCL on CM5 chip, temperature not stated, recombinant protein

Q: Does GUUAGGGUUUAUGGGAUUG [Apt-3] bind (cell surface nucleolin)?
A: binds

Q: Does GUUAGGGUUUGGGAUUG [Apt-1] bind [1]?
A: binds

Q: Does GUUAGGGUUUUGGGAUUG [Apt-2] bind [1]?
A: binds

Q: Does GUUAGGGUUUAUUUGGGAUUG [Apt-5] bind [1]?
A: binds

Q: Does GUUAGGGUUUAUUGGGAUUG [Apt-4] bind [1]?
A: binds

Q: Does GUUAGGGUUUAUUAUGGGAUUG [Apt-6] bind [1]?
A: binds

Construct, isoform or probe ends are uncertain for at least one entry. For part of these data: Where cells or extracts were used, other partners may take part. For part of these data: At least one verdict rests on a figure or table, not on a statement of the authors.
